This is an account of results in paper PMC4402518.

One data set deals with Hop2 + Mnd1 + Dmc1. The data set is described as follows: Exonuclease I protection. The settings on record: Dmc1 nucleofilament; recombinant protein; single-stranded DNA.
Data set [1] relates to Hop2 LZ2+LZ3wCH + Mnd1 LZ2+LZ3wCH + Dmc1. Put plainly: Exonuclease I protection. As to conditions: Dmc1 nucleofilament, protection similar to wild type; recombinant protein; single-stranded DNA.
The test system of data set [2] is Hop2 LZ3wCH + Mnd1 LZ3wCH + Dmc1. The data set is described as follows: Exonuclease I protection. As to conditions: Dmc1 nucleofilament, protection similar to wild type; recombinant protein; single-stranded DNA.
Data set [3] deals with Hop2 dWHD + Mnd1 dWHD + Dmc1. Put plainly: Exonuclease I protection. The settings on record: Dmc1 nucleofilament, protection similar to wild type; recombinant protein; single-stranded DNA.
The next data set relates to Hop2-Mnd1 WHD+LZ1 + Dmc1. Put plainly: Exonuclease I protection. The settings on record: Dmc1 nucleofilament, far less protective; recombinant protein; protein details: N-terminal His10-MBP; single-stranded DNA.
The subject of a further data set is Hop2-Mnd1 dLZ3wCH + Dmc1. The data set is described as follows: Exonuclease I protection. As to conditions: Dmc1 nucleofilament, far less protective; recombinant protein; protein details: N-terminal His10-MBP; single-stranded DNA.
The next data set has as its system Hop2 + Mnd1. The data set is described as follows: fluorescence anisotropy. As to conditions: 5 mM Mg2+; Fluorescence anisotropy: 20 mM Tris-HCl pH 7.5, 100 mM NaCl, 5 mM MgCl2, 25 C, 50 nM DNA, triplicate; recombinant protein; label: 5'-fluorescein; single-stranded DNA. A general note: In fluorescence polarisation assays a small probe gives low polarisation when free and higher when bound to something large.

The exact form of at least one protein or probe is not confirmed. For some of these results: No signal at the amounts used counts as a negative. For some of these results: The comparison behind a weaker result is the experiment's own reference, which may not be listed here.

In the case of “CGGCATCAGAGCAGATTGTACTGAGAGTGCACCATATGCGGTGTGAAATACCGCACAGAT [60-mer ssDNA]”, the binding result with Hop2 + Mnd1 + Dmc1 is “binds”; in data set [1], “binds”; in data set [2], “binds”; in data set [3], “binds”; in the data set with Hop2-Mnd1 WHD+LZ1 + Dmc1 it was “binds more weakly”; with Hop2-Mnd1 dLZ3wCH + Dmc1, “binds more weakly”.
Regarding “GCGGGTAATCCAGATGTTCCACGTGAAACAGAACAACTAA [40-mer ssDNA]”, in the data set on Hop2 + Mnd1, the binding result was “no binding”.
